Reference: article doi:10.1101/2024.08.19.608523 (bioRxiv, 2024)
No constants are given. Whether binding was seen depends on the method and setting.

By UniProt entry, the sequences of proteins in these tests, tags left out. Where a name states a change or a piece, a line headed by the entry shows the natural chain unless it says otherwise. Residues count along the entry.
UniProt P11862, 1-276, stated change not applied: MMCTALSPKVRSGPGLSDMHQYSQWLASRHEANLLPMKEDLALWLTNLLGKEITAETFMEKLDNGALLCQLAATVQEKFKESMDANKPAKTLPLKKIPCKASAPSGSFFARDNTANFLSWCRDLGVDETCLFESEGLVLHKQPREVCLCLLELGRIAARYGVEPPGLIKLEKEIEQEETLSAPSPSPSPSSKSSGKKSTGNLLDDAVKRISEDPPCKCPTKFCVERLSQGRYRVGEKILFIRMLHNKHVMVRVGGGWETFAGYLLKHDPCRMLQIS
UniProt P11862, 198-276, stated change not applied: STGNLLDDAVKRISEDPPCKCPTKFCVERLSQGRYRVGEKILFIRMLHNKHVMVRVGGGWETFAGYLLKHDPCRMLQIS

Tests used:
[1] = molecular target: GAS2ΔC (residues 1-276) (mouse) (UniProt P11862); experiment: SEC
[2] = molecular target: GAS2-GARΔC (residues 198-276) (mouse) (UniProt P11862); experiment: SEC

Row | binding [1] | binding [2] | Substance
1 | no binding |  | GAS2ΔC (residues 1-276) (from UniProt P11862 1-276) (domain or fragment)
2 |  | no binding | GAS2-GARΔC (residues 198-276) (from UniProt P11862 198-276) (domain or fragment)
